{"source": "PubChem BioAssay AID652243 (Drosophila RNAi Screening Center, 2013)", "assay": "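Knock-downs that decrease or increase androgen receptor reporter signal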 (primary screen)", "system": "Drosophila S2R+ cells", "reagents": "long dsRNA against Drosophila genes", "timing": "72 h (48 h, then 24 h hormone)", "conditions": "synthetic androgen R1881 at 10 nM for 24 h", "measured": "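Firefly light from an androgen-responsive reporter and Renilla control light per well, raw and unnormalised, for each of two replicates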", "reading the numbers": "firefly reporter light: higher = more light from androgen-responsive reporter; Renilla control light: higher = more constitutive control signal (cell number, transfection)", "rule for the call": "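Across duplicate plates, a knock-down whose log firefly/Renilla ratio shifted a set fold down or up from the GFP/LacZ control mean was a hit; the downward cut appears as both 1.5 and 3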", "calls": "active = hit: reporter lowered or raised; inactive = no hit", "note": "In all, the deposit lists about 24,000 reagents; below is a random part of those that have a named target and a result. Of all reagents, 246 (1%) got an active call. 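Plates not normalised; calls are printed but the firefly/Renilla ratio behind them is not deposited; fold cut for lowering reported inconsistently.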 Raw values are not corrected between plates. Reagents against one gene are numbered here. The record does not give: the amount of reagent."}
{"predicted target": "HLH3B (GeneID 31249)", "reagent no.": 1, "firefly reporter light, replicate 1": 1.95e5, "firefly reporter light, replicate 2": 2.53e5, "Renilla control light, replicate 1": 3.44e6, "Renilla control light, replicate 2": 4.30e6, "Call": "active"}
{"predicted target": "HLH3B (GeneID 31249)", "reagent no.": 2, "firefly reporter light, replicate 1": 3.98e5, "firefly reporter light, replicate 2": 4.92e5, "Renilla control light, replicate 1": 5.69e5, "Renilla control light, replicate 2": 5.39e5, "Call": "inactive"}
{"predicted target": "sqd (GeneID 41666)", "reagent no.": 1, "firefly reporter light, replicate 1": 1.68e5, "firefly reporter light, replicate 2": 1.38e5, "Renilla control light, replicate 1": 2.93e6, "Renilla control light, replicate 2": 2.58e6, "Call": "inactive"}
{"predicted target": "sqd (GeneID 41666)", "reagent no.": 2, "firefly reporter light, replicate 1": 4.10e5, "firefly reporter light, replicate 2": 4.07e5, "Renilla control light, replicate 1": 2.81e6, "Renilla control light, replicate 2": 3.54e6, "Call": "inactive"}
{"predicted target": "sqd (GeneID 41666)", "reagent no.": 3, "firefly reporter light, replicate 1": 2.82e5, "firefly reporter light, replicate 2": 6.65e5, "Renilla control light, replicate 1": 7.08e5, "Renilla control light, replicate 2": 1.52e6, "Call": "inactive"}
{"predicted target": "sqd (GeneID 41666)", "reagent no.": 4, "firefly reporter light, replicate 1": 3.14e5, "firefly reporter light, replicate 2": 1.74e5, "Renilla control light, replicate 1": 7.59e5, "Renilla control light, replicate 2": 6.73e5, "Call": "inactive"}
{"predicted target": "sqd (GeneID 41666)", "reagent no.": 5, "firefly reporter light, replicate 1": 2.36e5, "firefly reporter light, replicate 2": 3.09e5, "Renilla control light, replicate 1": 1.21e6, "Renilla control light, replicate 2": 7.78e5, "Call": "inactive"}
{"predicted target": "CG2921 (GeneID 37515)", "reagent no.": 1, "firefly reporter light, replicate 1": 1.64e6, "firefly reporter light, replicate 2": 5.27e5, "Renilla control light, replicate 1": 2.49e6, "Renilla control light, replicate 2": 9.29e5, "Call": "inactive"}
{"predicted target": "CG2921 (GeneID 37515)", "reagent no.": 2, "firefly reporter light, replicate 1": 6.36e5, "firefly reporter light, replicate 2": 4.54e5, "Renilla control light, replicate 1": 7.63e5, "Renilla control light, replicate 2": 7.38e5, "Call": "inactive"}
{"predicted target": "Sirt1 (GeneID 34708)", "reagent no.": 1, "firefly reporter light, replicate 1": 9.86e5, "firefly reporter light, replicate 2": 7.97e5, "Renilla control light, replicate 1": 1.21e6, "Renilla control light, replicate 2": 1.09e6, "Call": "inactive"}
{"predicted target": "cg (GeneID 36571)", "reagent no.": 1, "firefly reporter light, replicate 1": 5.33e5, "firefly reporter light, replicate 2": 5.30e5, "Renilla control light, replicate 1": 1.44e6, "Renilla control light, replicate 2": 1.68e6, "Call": "inactive"}
{"predicted target": "cg (GeneID 36571)", "reagent no.": 2, "firefly reporter light, replicate 1": 3.46e5, "firefly reporter light, replicate 2": 2.44e5, "Renilla control light, replicate 1": 1.09e6, "Renilla control light, replicate 2": 1.35e6, "Call": "inactive"}
{"predicted target": "Jon66Ci (GeneID 38952)", "reagent no.": 1, "firefly reporter light, replicate 1": 1.48e5, "firefly reporter light, replicate 2": 1.25e5, "Renilla control light, replicate 1": 1.74e6, "Renilla control light, replicate 2": 1.53e6, "Call": "inactive"}
{"predicted target": "Jon66Ci (GeneID 38952)", "reagent no.": 2, "firefly reporter light, replicate 1": 2.94e5, "firefly reporter light, replicate 2": 2.58e5, "Renilla control light, replicate 1": 8.68e5, "Renilla control light, replicate 2": 7.81e5, "Call": "inactive"}
{"predicted target": "aay (GeneID 39085)", "reagent no.": 1, "firefly reporter light, replicate 1": 8.05e5, "firefly reporter light, replicate 2": 7.63e5, "Renilla control light, replicate 1": 9.98e5, "Renilla control light, replicate 2": 1.02e6, "Call": "inactive"}
{"predicted target": "aay (GeneID 39085)", "reagent no.": 2, "Call": "inactive"}
{"predicted target": "Mcad (GeneID 38864)", "reagent no.": 1, "firefly reporter light, replicate 1": 9.14e5, "firefly reporter light, replicate 2": 7.96e5, "Renilla control light, replicate 1": 1.36e6, "Renilla control light, replicate 2": 1.44e6, "Call": "inactive"}
{"predicted target": "Mcad (GeneID 38864)", "reagent no.": 2, "firefly reporter light, replicate 1": 3.12e5, "firefly reporter light, replicate 2": 3.70e5, "Renilla control light, replicate 1": 7.12e5, "Renilla control light, replicate 2": 6.08e5, "Call": "inactive"}
{"predicted target": "Cyp313a4 (GeneID 41563)", "reagent no.": 1, "firefly reporter light, replicate 1": 32429, "firefly reporter light, replicate 2": 41543, "Renilla control light, replicate 1": 7.91e5, "Renilla control light, replicate 2": 1.08e6, "Call": "inactive"}
{"predicted target": "unc-119 (GeneID 31664)", "reagent no.": 1, "firefly reporter light, replicate 1": 3.45e5, "firefly reporter light, replicate 2": 4.11e5, "Renilla control light, replicate 1": 2.47e6, "Renilla control light, replicate 2": 2.00e6, "Call": "inactive"}
{"predicted target": "unc-119 (GeneID 31664)", "reagent no.": 2, "firefly reporter light, replicate 1": 4.01e5, "firefly reporter light, replicate 2": 4.81e5, "Renilla control light, replicate 1": 1.15e6, "Renilla control light, replicate 2": 1.31e6, "Call": "inactive"}

Laid out differently: results already given
aay (GeneID 39085) #2
- Call: inactive

Mcad (GeneID 38864) #1
- firefly reporter light, replicate 1: 9.14e5
- firefly reporter light, replicate 2: 7.96e5
- Renilla control light, replicate 1: 1.36e6
- Renilla control light, replicate 2: 1.44e6
- Call: inactive
